Article doi:10.1101/2024.11.01.621267

Sequences of proteins named here, by UniProt entry; tags and fusion partners are left off.
UniProt P11940: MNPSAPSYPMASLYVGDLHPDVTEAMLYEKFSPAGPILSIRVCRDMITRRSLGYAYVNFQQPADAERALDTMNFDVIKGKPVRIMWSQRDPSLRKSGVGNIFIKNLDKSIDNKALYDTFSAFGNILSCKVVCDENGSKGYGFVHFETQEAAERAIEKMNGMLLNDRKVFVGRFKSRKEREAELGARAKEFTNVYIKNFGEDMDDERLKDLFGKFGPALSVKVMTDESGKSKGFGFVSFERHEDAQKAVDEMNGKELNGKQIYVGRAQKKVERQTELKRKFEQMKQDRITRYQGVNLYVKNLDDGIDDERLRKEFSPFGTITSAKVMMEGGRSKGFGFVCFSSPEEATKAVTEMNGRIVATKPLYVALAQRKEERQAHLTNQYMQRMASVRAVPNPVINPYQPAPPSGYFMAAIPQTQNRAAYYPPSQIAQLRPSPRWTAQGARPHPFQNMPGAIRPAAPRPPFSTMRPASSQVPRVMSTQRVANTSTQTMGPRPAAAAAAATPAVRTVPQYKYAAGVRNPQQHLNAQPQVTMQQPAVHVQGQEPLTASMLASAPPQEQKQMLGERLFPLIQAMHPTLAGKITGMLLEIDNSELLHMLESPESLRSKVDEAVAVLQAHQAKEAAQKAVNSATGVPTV

Assays:
FLAG-LARP4-ΔPAM2 (human) = FLAG-LARP4-ΔPAM2 (human) (UniProt Q71RC2); experiment: co-IP; anti-FLAG M2 magnetic beads, extract of HEK293 cells transfected with FLAG-tagged constructs; 4°C 2 hours; 50 mM Tris, 75 mM NaCl, 0.05% NP-40; blot with anti-RACK1 or anti-PABP1
[1] = target: FLAG-LARP4-L22A/W22A (human) (UniProt Q71RC2); experiment: as above

Question: Which results are given for “cytoplasmic poly(A)-binding protein (PABPC1/PABP), endogenous in HEK293 cells (from UniProt P11940 1-636)”?
Answer: binding (FLAG-LARP4-ΔPAM2 (human)): binds; binding [1]: binds

No constants are given. Whether binding was seen depends on the method and setting. Binding seen in cells or lysates may run through a third protein. Binding can be weak; no strength is given.
